# Test results published in article doi:10.1101/2020.12.10.419598.
# Amino acid sequences for entries named in this document (tags omitted). Residues count along the entry.
# UniProt Q924X6, residues 29-996: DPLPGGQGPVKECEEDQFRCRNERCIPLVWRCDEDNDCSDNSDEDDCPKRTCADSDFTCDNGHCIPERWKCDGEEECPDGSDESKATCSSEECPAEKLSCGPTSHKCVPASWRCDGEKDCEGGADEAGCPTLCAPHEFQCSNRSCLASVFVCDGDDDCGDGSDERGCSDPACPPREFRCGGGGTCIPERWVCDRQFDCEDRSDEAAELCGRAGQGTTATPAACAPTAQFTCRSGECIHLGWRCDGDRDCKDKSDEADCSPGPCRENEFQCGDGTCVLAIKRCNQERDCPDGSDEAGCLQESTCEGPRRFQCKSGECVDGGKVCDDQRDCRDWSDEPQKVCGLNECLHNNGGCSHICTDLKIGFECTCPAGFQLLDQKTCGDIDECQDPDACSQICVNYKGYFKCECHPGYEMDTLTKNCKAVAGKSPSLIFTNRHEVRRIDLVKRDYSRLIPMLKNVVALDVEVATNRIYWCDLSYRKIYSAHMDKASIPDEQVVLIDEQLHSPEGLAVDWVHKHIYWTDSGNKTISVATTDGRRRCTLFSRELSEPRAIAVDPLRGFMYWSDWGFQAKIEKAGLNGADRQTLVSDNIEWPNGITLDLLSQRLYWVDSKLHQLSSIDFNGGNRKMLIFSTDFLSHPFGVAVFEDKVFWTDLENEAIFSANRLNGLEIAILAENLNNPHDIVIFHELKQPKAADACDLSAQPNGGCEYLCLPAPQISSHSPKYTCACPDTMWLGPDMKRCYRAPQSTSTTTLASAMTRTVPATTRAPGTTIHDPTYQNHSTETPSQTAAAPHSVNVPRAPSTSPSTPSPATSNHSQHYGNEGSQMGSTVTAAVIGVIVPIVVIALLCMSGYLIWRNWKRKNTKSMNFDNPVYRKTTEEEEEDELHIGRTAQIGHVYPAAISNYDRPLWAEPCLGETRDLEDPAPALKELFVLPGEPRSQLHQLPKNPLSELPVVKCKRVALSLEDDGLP
# UniProt Q9JLQ0: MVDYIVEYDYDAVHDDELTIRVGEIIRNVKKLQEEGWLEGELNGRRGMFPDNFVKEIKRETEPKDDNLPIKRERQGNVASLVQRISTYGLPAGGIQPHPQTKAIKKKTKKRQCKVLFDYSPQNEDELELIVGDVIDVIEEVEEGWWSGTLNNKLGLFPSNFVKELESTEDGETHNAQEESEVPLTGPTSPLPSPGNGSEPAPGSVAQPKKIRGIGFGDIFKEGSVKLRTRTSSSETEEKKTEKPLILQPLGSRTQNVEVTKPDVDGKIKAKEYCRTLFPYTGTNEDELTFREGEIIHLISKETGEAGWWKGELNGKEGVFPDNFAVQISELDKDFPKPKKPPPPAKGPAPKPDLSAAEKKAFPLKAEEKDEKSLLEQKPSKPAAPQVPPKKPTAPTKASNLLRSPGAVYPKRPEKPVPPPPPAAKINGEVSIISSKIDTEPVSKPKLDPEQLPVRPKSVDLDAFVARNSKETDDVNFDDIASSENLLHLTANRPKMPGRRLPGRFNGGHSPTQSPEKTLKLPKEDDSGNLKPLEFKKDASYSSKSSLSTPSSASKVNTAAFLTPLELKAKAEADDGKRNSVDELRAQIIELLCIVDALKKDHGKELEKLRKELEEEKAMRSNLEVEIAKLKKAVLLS
# UniProt Q9Y5K6: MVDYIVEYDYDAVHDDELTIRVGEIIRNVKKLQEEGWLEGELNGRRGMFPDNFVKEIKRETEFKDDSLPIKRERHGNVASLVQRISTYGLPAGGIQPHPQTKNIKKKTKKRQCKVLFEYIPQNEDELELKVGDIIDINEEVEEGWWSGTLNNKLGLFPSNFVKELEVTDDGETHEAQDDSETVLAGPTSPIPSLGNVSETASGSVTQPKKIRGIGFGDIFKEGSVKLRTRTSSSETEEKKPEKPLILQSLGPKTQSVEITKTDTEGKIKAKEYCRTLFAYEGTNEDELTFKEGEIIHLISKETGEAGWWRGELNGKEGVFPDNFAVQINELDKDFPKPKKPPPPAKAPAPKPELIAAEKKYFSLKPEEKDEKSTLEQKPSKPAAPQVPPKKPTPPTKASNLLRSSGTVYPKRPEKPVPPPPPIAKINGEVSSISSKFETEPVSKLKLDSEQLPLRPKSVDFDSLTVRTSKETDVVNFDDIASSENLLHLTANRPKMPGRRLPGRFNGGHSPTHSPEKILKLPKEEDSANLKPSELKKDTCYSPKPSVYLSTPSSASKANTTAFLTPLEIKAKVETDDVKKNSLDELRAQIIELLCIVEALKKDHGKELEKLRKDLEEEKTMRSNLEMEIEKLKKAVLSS
# UniProt Q14114, residues 33-963: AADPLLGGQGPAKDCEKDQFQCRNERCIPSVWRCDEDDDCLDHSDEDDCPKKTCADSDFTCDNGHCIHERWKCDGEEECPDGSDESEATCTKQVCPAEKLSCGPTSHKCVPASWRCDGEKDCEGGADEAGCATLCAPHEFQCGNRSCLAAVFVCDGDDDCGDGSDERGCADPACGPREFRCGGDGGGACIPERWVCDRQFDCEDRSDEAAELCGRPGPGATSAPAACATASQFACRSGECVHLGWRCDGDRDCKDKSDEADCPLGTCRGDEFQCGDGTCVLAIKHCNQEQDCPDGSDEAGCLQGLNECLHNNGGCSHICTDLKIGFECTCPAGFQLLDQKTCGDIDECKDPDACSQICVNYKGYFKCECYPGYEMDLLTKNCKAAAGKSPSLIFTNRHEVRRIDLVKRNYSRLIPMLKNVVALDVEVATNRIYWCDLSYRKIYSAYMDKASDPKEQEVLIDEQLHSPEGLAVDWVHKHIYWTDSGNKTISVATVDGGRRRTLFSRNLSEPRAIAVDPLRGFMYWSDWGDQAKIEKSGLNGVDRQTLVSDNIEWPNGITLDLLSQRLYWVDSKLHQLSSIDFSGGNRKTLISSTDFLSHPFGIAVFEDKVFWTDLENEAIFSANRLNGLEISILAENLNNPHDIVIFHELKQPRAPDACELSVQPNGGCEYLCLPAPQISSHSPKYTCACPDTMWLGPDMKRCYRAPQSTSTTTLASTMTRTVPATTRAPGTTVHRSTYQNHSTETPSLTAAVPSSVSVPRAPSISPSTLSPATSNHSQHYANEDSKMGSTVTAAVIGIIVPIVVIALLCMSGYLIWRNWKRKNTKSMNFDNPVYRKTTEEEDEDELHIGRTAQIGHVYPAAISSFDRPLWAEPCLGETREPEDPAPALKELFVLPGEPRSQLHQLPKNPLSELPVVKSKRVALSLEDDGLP
# These are yes or no findings as the source states them, for the method shown. In cells and extracts the contact can be indirect. Some results given as binding are weak or reduced against the parent protein; the word gives no strength.
# What was measured:
# Assay in all cases: co-IP
# [1] = biological target: ApoE receptor 2 (ApoER2), mouse (mouse (endogenous in adult mouse brain)) (UniProt Q924X6)
# [2] = biological target: CD2-associated protein (CD2AP), mouse (mouse (endogenous in adult mouse brain)) (UniProt Q9JLQ0)
# [3] = biological target: CD2-associated protein (CD2AP), human (human (endogenous in hCMEC/D3)) (UniProt Q9Y5K6)
Molecule,binding [3],further results
"CD2-associated protein (CD2AP), mouse (from UniProt Q9JLQ0 1-637)",–,binding [1]: binds
"ApoE receptor 2 (ApoER2), mouse (from UniProt Q924X6 29-996)",–,binding [2]: binds
"ApoE receptor 2 (ApoER2), human (from UniProt Q14114 33-963)",binds,–
"Phosphatidylinositol Binding Clathrin Assembly Protein (PICALM), human (protein, UniProt Q13492 1-652) MSGQSLTDRITAAQHSVTGSAVSKTVCKATTHEIMGPKKKHLDYLIQCTNEMNVNIPQLADSLFERTTNSSWVVVFKSLITTHHLMVYGNERFIQYLASRNTLFNLSNFLDKSGLQGYDMSTFIRRYSRYLNEKAVSYRQVAFDFTKVKRGADGVMRTMNTEKLLKTVPIIQNQMDALLDFNVNSNELTNGVINAAFMLLFKDAIRLFAAYNEGIINLLEKYFDMKKNQCKEGLDIYKKFLTRMTRISEFLKVAEQVGIDRGDIPDLSQAPSSLLDALEQHLASLEGKKIKDSTAASRATTLSNAVSSLASTGLSLTKVDEREKQAALEEEQARLKALKEQRLKELAKKPHTSLTTAASPVSTSAGGIMTAPAIDIFSTPSSSNSTSKLPNDLLDLQQPTFHPSVHPMSTASQVASTWGDPFSATVDAVDDAIPSLNPFLTKSSGDVHLSISSDVSTFTTRTPTHEMFVGFTPSPVAQPHPSAGLNVDFESVFGNKSTNVIVDSGGFDELGGLLKPTVASQNQNLPVAKLPPSKLVSDDLDSSLANLVGNLGIGNGTTKNDVNWSQPGEKKLTGGSNWQPKVAPTTAWNAATMAPPVMAYPATTPTGMIGYGIPPQMGSVPVMTQPTLIYSQPVMRPPNPFGPVSGAQIQFM",no binding,–
